Among the data in paper doi:10.1101/817049 are binding values, retold here.

Protein sequences, listed by entry. Tags and fused reporters are not part of them.
UniProt P37238: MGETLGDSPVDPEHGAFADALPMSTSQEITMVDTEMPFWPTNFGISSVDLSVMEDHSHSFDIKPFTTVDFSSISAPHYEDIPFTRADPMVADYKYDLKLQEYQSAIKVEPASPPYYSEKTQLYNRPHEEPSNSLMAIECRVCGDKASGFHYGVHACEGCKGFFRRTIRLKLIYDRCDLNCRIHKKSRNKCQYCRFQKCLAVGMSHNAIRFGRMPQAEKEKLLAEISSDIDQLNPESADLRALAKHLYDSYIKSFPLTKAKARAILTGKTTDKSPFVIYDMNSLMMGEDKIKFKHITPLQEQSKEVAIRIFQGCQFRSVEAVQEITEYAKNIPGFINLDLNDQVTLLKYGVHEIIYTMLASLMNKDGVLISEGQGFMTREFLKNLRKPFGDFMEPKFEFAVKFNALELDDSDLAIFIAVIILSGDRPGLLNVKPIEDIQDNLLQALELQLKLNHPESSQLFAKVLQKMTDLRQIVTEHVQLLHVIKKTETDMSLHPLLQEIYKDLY

Like-named read-outs stand apart in the source and are kept apart here. Results are given in words; binding and its absence hold for the method and conditions named. In cells and extracts the contact can be indirect. Some binding calls cover weakened binding; strength is not graded here. For some of these results: Sequences can lack the tags named with a protein.

Holding throughout (assay): co-IP
For assay [1], the target named is T1, endogenous PGC-1α of mouse muscle (mouse (endogenous in muscle)) (UniProt O70343).
T1 sequence: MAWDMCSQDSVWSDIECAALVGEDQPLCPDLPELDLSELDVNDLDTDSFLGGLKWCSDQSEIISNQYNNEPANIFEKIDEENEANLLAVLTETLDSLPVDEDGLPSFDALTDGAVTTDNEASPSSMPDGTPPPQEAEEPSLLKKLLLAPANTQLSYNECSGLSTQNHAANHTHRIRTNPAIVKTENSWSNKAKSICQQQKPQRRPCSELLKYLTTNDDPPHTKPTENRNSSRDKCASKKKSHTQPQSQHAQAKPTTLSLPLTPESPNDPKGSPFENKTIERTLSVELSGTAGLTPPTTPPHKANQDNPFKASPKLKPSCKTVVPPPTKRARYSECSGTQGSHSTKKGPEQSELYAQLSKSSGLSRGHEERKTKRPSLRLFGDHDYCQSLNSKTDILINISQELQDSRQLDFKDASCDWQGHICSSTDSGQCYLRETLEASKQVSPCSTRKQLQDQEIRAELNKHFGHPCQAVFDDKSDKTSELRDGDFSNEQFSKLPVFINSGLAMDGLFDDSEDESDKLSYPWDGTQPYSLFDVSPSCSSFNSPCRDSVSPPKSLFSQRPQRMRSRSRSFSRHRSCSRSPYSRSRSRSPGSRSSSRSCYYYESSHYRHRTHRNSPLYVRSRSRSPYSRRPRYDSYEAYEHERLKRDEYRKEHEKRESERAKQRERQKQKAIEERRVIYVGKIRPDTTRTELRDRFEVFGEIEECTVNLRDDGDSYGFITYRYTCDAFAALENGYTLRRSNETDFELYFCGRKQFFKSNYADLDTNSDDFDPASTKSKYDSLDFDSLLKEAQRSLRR

For assay [2], the target named is T2, endogenous TUG of mouse hindlimb muscle (mouse (endogenous in hindlimb muscle)) (UniProt Q8VBT9).
T2 sequence: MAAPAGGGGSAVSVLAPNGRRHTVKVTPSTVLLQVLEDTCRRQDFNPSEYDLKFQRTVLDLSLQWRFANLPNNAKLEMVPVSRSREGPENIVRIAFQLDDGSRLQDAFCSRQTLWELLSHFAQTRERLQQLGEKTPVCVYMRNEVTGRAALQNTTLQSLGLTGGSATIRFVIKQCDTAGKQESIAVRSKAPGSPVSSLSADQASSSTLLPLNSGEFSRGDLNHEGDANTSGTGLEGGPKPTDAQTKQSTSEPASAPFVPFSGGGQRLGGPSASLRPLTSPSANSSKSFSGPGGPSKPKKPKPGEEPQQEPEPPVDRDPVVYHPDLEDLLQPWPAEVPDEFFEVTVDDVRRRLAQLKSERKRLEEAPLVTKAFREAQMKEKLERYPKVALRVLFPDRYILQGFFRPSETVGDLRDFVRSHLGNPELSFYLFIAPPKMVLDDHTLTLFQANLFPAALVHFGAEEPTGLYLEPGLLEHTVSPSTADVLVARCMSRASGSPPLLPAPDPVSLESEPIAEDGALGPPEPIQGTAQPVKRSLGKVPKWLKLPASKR

The next assay concerns the target T3, flag-tagged PGC-1α (UniProt O70343).
T3 sequence: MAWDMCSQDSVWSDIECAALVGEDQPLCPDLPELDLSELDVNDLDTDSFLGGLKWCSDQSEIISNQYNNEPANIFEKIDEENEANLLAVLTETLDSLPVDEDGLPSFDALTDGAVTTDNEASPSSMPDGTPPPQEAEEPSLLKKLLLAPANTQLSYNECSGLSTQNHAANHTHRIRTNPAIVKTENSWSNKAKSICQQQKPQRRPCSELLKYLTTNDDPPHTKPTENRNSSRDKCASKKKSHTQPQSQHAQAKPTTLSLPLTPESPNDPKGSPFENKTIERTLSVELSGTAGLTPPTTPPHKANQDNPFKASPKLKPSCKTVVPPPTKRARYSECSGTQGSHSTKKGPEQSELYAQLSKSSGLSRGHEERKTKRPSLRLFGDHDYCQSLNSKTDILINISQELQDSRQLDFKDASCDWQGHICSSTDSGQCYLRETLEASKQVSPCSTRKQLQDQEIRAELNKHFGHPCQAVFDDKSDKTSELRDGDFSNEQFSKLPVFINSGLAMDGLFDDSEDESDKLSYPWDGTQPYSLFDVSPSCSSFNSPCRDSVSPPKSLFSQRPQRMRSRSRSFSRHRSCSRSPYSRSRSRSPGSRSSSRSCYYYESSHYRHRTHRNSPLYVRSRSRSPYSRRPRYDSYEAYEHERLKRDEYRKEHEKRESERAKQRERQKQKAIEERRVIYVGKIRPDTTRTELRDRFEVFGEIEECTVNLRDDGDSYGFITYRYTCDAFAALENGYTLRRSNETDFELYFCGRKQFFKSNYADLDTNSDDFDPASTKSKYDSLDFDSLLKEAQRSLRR

Assay [3] concerns the target T2, endogenous TUG of mouse hindlimb muscle (mouse (endogenous in hindlimb muscle)). This is another data set of the same source.

Consider “endogenous PPARγ of mouse muscle (from UniProt P37238 1-505)”, for which the binding entry in assay [1] and in assay [2] was “binds” each time.

Consider “flag-tagged PPARγ (from UniProt P37238 1-505)”, for which the binding entry with flag-tagged PGC-1α was “binds”.

B1: endogenous PGC-1α of mouse muscle (protein, UniProt O70343 1-797)
chain: MAWDMCSQDSVWSDIECAALVGEDQPLCPDLPELDLSELDVNDLDTDSFLGGLKWCSDQSEIISNQYNNEPANIFEKIDEENEANLLAVLTETLDSLPVDEDGLPSFDALTDGAVTTDNEASPSSMPDGTPPPQEAEEPSLLKKLLLAPANTQLSYNECSGLSTQNHAANHTHRIRTNPAIVKTENSWSNKAKSICQQQKPQRRPCSELLKYLTTNDDPPHTKPTENRNSSRDKCASKKKSHTQPQSQHAQAKPTTLSLPLTPESPNDPKGSPFENKTIERTLSVELSGTAGLTPPTTPPHKANQDNPFKASPKLKPSCKTVVPPPTKRARYSECSGTQGSHSTKKGPEQSELYAQLSKSSGLSRGHEERKTKRPSLRLFGDHDYCQSLNSKTDILINISQELQDSRQLDFKDASCDWQGHICSSTDSGQCYLRETLEASKQVSPCSTRKQLQDQEIRAELNKHFGHPCQAVFDDKSDKTSELRDGDFSNEQFSKLPVFINSGLAMDGLFDDSEDESDKLSYPWDGTQPYSLFDVSPSCSSFNSPCRDSVSPPKSLFSQRPQRMRSRSRSFSRHRSCSRSPYSRSRSRSPGSRSSSRSCYYYESSHYRHRTHRNSPLYVRSRSRSPYSRRPRYDSYEAYEHERLKRDEYRKEHEKRESERAKQRERQKQKAIEERRVIYVGKIRPDTTRTELRDRFEVFGEIEECTVNLRDDGDSYGFITYRYTCDAFAALENGYTLRRSNETDFELYFCGRKQFFKSNYADLDTNSDDFDPASTKSKYDSLDFDSLLKEAQRSLRR
Turning to B1, in assay [3], the binding entry is recorded as “binds”.
